{"sequences": {"note": "Amino acid sequences for entries named in this document (tags omitted). Residues count along the entry.", "UniProt P00746, 26-253": "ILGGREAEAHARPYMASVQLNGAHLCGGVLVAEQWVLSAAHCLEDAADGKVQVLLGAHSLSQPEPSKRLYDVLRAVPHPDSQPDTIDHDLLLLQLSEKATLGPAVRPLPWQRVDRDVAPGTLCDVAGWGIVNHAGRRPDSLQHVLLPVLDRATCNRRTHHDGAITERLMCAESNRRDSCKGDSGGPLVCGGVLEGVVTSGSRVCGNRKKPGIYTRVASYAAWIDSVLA"}, "source": "patent US20190032056", "key": {"[1]": {"target": "complement Factor D (fD) (Homo sapiens) (UniProt P00746)", "assay": "inhibition of the protein", "settings": "2'-F G, 3' idT, dose not given here"}, "[2]": {"target": "complement Factor D (fD) in C1q-depleted human serum (Homo sapiens) (UniProt P00746)", "assay": "inhibition of the protein", "settings": "protein in an extract, protein details: endogenous fD, about 9.6 nM in 10% serum"}, "[3]": {"system": "human growth factor (non-specific target on beads) (Homo sapiens)", "assay": "flow cytometry", "settings": "2'-F G; 2'-OMe A,C,U; 100 nM aptamer, 37 C; protein details: bead-immobilized"}, "[4]": {"settings": "2'-F G, 2'-OMe A,C,U, 5' C6NH2, 3' idT, hemolysis, 4 bp stem 2 not tolerated, variant of Aptamer 15"}, "[5]": {"settings": "2'-F G, 2'-OMe A,C,U, 5' C6NH2, 3' idT, hemolysis, loop 2 shortened without spacer not tolerated, variant of Aptamer 15"}, "[6]": {"settings": "2'-F G, 2'-OMe A,C,U, 9-carbon spacer [I-9] between parts, 5' C6NH2, 3' idT, hemolysis, loop 2 spacer tolerated, variant of Aptamer 15"}, "[7]": {"settings": "2'-F G, 2'-OMe A,C,U, 5' C6NH2, 3' idT, hemolysis, loop 3 shortened not tolerated, variant of Aptamer 15"}}, "note": "For some of these results: Negatives hold for the conditions tested. For some of these results: Results from cells or extracts need not show a direct contact. For some of these results: For at least one entry, the source does not settle the construct or the ends of the probe. For some of these results: The comparison behind a weaker result is the experiment's own reference, which may not be listed here."}
{"sequence": "AGGCCGCCUUGCCAGUAUUGGCUUAGGCUGGAAGUUUGGCGGCUU [S31]", "values": [{"measurement": "functional effect of the aptamer", "setting": "[1]; 2'-OMe A, C, U, 5' C6 disulfide, inhibits Z-Lys-SBzl esterase and C3bB convertase activity, data shown for S32 as example", "value": "active"}]}
{"sequence": "CAGUCUUGCGAGUUUGGCUAAGCUUCGAAGUUUGGCUG [Aptamer 37]", "values": [{"measurement": "functional effect of the aptamer", "setting": "[2]; 2'-F G, 2'-OMe A,C,U, 5' C6NH2, 3' idT, appeared fully inactive", "value": "not active"}]}
{"sequence": "CCGACUUGCCAGUAUAGGCUUAUGCUGGAAGUUUGUCGG [Aptamer 67]", "values": [{"measurement": "IC50", "setting": "[2]; 2'-F G, 2'-OMe A,C,U, 5' C6NH2, 3' idT, hemolysis", "value": "> 100", "unit": "nM"}]}
{"sequence": "CCGCCUUGAAGUAUUGGCUUAGGCUUAAGUUUGGCGG [Aptamer 20]", "values": [{"measurement": "functional effect of the aptamer", "setting": "[2]; [4]", "value": "not active"}]}
{"sequence": "CCGCCUUGCAGUAUUGGCUUAGGCUGAAGUUUGGCGG [Aptamer 18]", "values": [{"measurement": "functional effect of the aptamer", "setting": "[2]; 2'-F G, 2'-OMe A,C,U, 5' C6NH2, 3' idT, hemolysis at 10 and 100 nM, 4 bp stem 2 not tolerated, variant of Aptamer 15", "value": "not active"}]}
{"sequence": "CCGCCUUGCCAGAUUGGCUUAGCUGGAAGUUUGGCGG [Aptamer 19]", "values": [{"measurement": "functional effect of the aptamer", "setting": "[2]; [4]", "value": "not active"}]}
{"sequence": "CCGCCUUGCCAGUAUUGGCGGCUGGAAGUUUGGCGG [Aptamer 22]", "values": [{"measurement": "functional effect of the aptamer", "setting": "[2]; [5]", "value": "not active"}]}
{"sequence": "CCGCCUUGCCAGUAUUGGCGGCUGGAAGUUUGGCGG [Aptamer 25]", "values": [{"measurement": "functional effect of the aptamer", "setting": "[2]; [6]", "value": "active"}]}
{"sequence": "CCGCCUUGCCAGUAUUGGCUUAGGCUGGAAGUGGCGG [Aptamer 26]", "values": [{"measurement": "functional effect of the aptamer", "setting": "[2]; [7]", "value": "not active"}]}
{"sequence": "CCGCCUUGCCAGUAUUGGCUUAGGCUGGAAGUGGCGG [Aptamer 28]", "values": [{"measurement": "functional effect of the aptamer", "setting": "[2]; 2'-F G, 2'-OMe A,C,U, 6-carbon spacer [I-6] between parts, 5' C6NH2, 3' idT, hemolysis, U33,U34 to 6-carbon spacer not tolerated, variant of Aptamer 15", "value": "not active"}]}
{"sequence": "CCGCCUUGCCAGUAUUGGCUUAGGCUGGAAGUUGGCGG [Aptamer 27]", "values": [{"measurement": "functional effect of the aptamer", "setting": "[2]; [7]", "value": "not active"}]}
{"sequence": "CCGCCUUGCCAGUAUUGGCUUAGGCUGGAAGUUUGGCGG [Aptamer 15]", "values": [{"measurement": "functional effect of the aptamer", "setting": "[1]; 2'-OMe A, C, U, 5' C6NH2, inhibits Z-Lys-SBzl esterase and C3bB convertase activity, data shown for S32 as example", "value": "active"}]}
{"sequence": "CCGCCUUGCCAGUAUUGGCUUAGGCUGGAAGUUUGGCGG [S32]", "values": [{"measurement": "functional effect of the aptamer", "setting": "[1]; 2'-OMe A,C,U, 5' C6 disulfide linker, potently inhibits Z-Lys-SBzl cleavage and C3bB convertase formation, variant of S31", "value": "active"}]}
{"sequence": "CCGCCUUGCCAGUAUUGGCUUAGGCUGGAAGUUUGGCGGU [Aptamer 15 C3 spacer at 6]", "values": [{"measurement": "functional effect of the aptamer", "setting": "[2]; as Aptamer 15, 3-carbon spacer replaces U6, hemolysis, modest to moderate reduction, variant of Aptamer 15", "value": "less active"}]}
{"sequence": "CCGCCUUGCCAGUAUUGGCUUAGGCUGGAAGUUUGGCGGU [Aptamer 15 C3 spacer at 7]", "values": [{"measurement": "functional effect of the aptamer", "setting": "[2]; as Aptamer 15, 3-carbon spacer replaces U7, hemolysis, modest to moderate reduction, variant of Aptamer 15", "value": "less active"}]}
{"sequence": "CCGCCUUGCCAGUAUUGGCUUAGGCUGGAAGUUUGGCGGU [Aptamer 15 C3 spacer at 8]", "values": [{"measurement": "functional effect of the aptamer", "setting": "[2]; as Aptamer 15, 3-carbon spacer replaces G8, hemolysis, large loss of inhibition, variant of Aptamer 15", "value": "less active"}]}
{"sequence": "CCGCCUUGCCAGUAUUGGCUUAGGCUGGAAGUUUGGCGGU [Aptamer 15 C3 spacer at 18]", "values": [{"measurement": "functional effect of the aptamer", "setting": "[2]; as Aptamer 15, 3-carbon spacer replaces nt 18, hemolysis, no loss of activity, variant of Aptamer 15", "value": "active"}]}
{"sequence": "CCGCCUUGCCAGUAUUGGCUUAGGCUGGAAGUUUGGCGGU [Aptamer 15 C3 spacer at 19]", "values": [{"measurement": "functional effect of the aptamer", "setting": "[2]; as Aptamer 15, 3-carbon spacer replaces nt 19, hemolysis, no loss of activity, variant of Aptamer 15", "value": "active"}]}
{"sequence": "CCGCCUUGCCAGUAUUGGCUUAGGCUGGAAGUUUGGCGGU [Aptamer 15 C3 spacer at 20]", "values": [{"measurement": "functional effect of the aptamer", "setting": "[2]; as Aptamer 15, 3-carbon spacer replaces nt 20, hemolysis, no loss of activity, variant of Aptamer 15", "value": "active"}]}
{"sequence": "CCGCCUUGCCAGUAUUGGCUUAGGCUGGAAGUUUGGCGGU [Aptamer 15 C3 spacer at 21]", "values": [{"measurement": "functional effect of the aptamer", "setting": "[2]; as Aptamer 15, 3-carbon spacer replaces nt 21, hemolysis, no loss of activity, variant of Aptamer 15", "value": "active"}]}
{"sequence": "CCGCCUUGCCAGUAUUGGCUUAGGCUGGAAGUUUGGCGGU [Aptamer 15 C3 spacer at 22]", "values": [{"measurement": "functional effect of the aptamer", "setting": "[2]; as Aptamer 15, 3-carbon spacer replaces nt 22, hemolysis, no loss of activity, variant of Aptamer 15", "value": "active"}]}
{"sequence": "CCGCCUUGCCAGUAUUGGCUUAGGCUGGAAGUUUGGCGGU [Aptamer 15 C3 spacer at 29]", "values": [{"measurement": "functional effect of the aptamer", "setting": "[2]; as Aptamer 15, 3-carbon spacer replaces nt 29, hemolysis, complete loss of activity, variant of Aptamer 15", "value": "not active"}]}
{"sequence": "CCGCCUUGCCAGUAUUGGCUUAGGCUGGAAGUUUGGCGGU [Aptamer 15 C3 spacer at 30]", "values": [{"measurement": "functional effect of the aptamer", "setting": "[2]; as Aptamer 15, 3-carbon spacer replaces nt 30, hemolysis, complete loss of activity, variant of Aptamer 15", "value": "not active"}]}
{"sequence": "CCGCCUUGCCAGUAUUGGCUUAGGCUGGAAGUUUGGCGGU [Aptamer 15 C3 spacer at 31]", "values": [{"measurement": "functional effect of the aptamer", "setting": "[2]; as Aptamer 15, 3-carbon spacer replaces nt 31, hemolysis, complete loss of activity, variant of Aptamer 15", "value": "not active"}]}
{"sequence": "CCGCCUUGCCAGUAUUGGCUUAGGCUGGAAGUUUGGCGGU [Aptamer 15 C3 spacer at 32]", "values": [{"measurement": "functional effect of the aptamer", "setting": "[2]; as Aptamer 15, 3-carbon spacer replaces nt 32, hemolysis, complete loss of activity, variant of Aptamer 15", "value": "not active"}]}
{"sequence": "CCGCCUUGCCAGUAUUGGCUUAGGCUGGAAGUUUGGCGGU [Aptamer 15 C3 spacer at 33]", "values": [{"measurement": "functional effect of the aptamer", "setting": "[2]; as Aptamer 15, 3-carbon spacer replaces U33, hemolysis, well tolerated, variant of Aptamer …", "value": "active"}]}
{"sequence": "CCGCCUUGCCAGUAUUGGGCUGGAAGUUUGGCGG [Aptamer 21]", "values": [{"measurement": "functional effect of the aptamer", "setting": "[2]; [5]", "value": "not active"}]}
{"sequence": "CCGCCUUGCCAGUAUUGGGCUGGAAGUUUGGCGG [Aptamer 23]", "values": [{"measurement": "functional effect of the aptamer", "setting": "[2]; 2'-F G, 2'-OMe A,C,U, hexaethylene glycol spacer [I-18] between parts, 5' C6NH2, 3' idT, hemolysis, loop 2 spacer tolerated, variant of Aptamer 15", "value": "active"}]}
{"sequence": "CCGCCUUGCCAGUAUUGGGCUGGAAGUUUGGCGG [Aptamer 24]", "values": [{"measurement": "functional effect of the aptamer", "setting": "[2]; [6]", "value": "active"}]}
{"sequence": "CCGUUGUGGGUAUUGGCUUAGGCCCAAAGUUUCGG [Aptamer 90]", "values": [{"measurement": "IC50", "setting": "[2]; 2'-F G, 2'-OMe A,C,U, 5' C6NH2, 3' idT, hemolysis, variant of Aptamer 15", "value": "> 100", "unit": "nM"}]}
{"sequence": "GCCUUGCCAGUAUUGGCGAUGGCUGGAAGUUUGGC [Aptamer 58]", "values": [{"measurement": "IC50", "setting": "[2]; 2'-F G, 2'-OMe A,C,U, 5' C6NH2, 3' idT, hemolysis, variant of Aptamer 39", "value": "> 100", "unit": "nM"}]}
{"sequence": "GGGAGUGUGUACGAGGCAUUAGGCCGCCACCCAAACUGCAGUCCUCGUAAGUCUGCCUGGCGGCUUUGAUACUUGAUCGCCCUAGAAGC [C1]", "values": [{"measurement": "binding result", "setting": "[3]", "value": "no binding"}]}
{"sequence": "GGGAGUGUGUACGAGGCAUUAGGCCGCCACCUCGUUUGAUUGCGGUUGUUCGGCCGCGGGCGGCUUUGAUACUUGAUCGCCCUAGAAGC [C3]", "values": [{"measurement": "binding result", "setting": "[3]", "value": "no binding"}]}
{"sequence": "GGGAGUGUGUACGAGGCAUUAGUCCGCCGAAGUCUUUUGGCUCGGUUUUUUCAAGGUCGGCGGCUUUGAUACUUGAUCGCCCUAGAAGC [C2]", "values": [{"measurement": "binding result", "setting": "[3]", "value": "no binding"}]}
